This passage reports melting temperature shift results from the supplement of paper PMC12595434, “Development of retinoid nuclear receptor pathway antagonists through targeting aldehyde dehydrogenase 1A3” (iScience, 2025).

Amino acid sequences for entries named in this document (tags omitted). A change or cut given only in a name is not applied to a line headed by its entry.
UniProt O60861: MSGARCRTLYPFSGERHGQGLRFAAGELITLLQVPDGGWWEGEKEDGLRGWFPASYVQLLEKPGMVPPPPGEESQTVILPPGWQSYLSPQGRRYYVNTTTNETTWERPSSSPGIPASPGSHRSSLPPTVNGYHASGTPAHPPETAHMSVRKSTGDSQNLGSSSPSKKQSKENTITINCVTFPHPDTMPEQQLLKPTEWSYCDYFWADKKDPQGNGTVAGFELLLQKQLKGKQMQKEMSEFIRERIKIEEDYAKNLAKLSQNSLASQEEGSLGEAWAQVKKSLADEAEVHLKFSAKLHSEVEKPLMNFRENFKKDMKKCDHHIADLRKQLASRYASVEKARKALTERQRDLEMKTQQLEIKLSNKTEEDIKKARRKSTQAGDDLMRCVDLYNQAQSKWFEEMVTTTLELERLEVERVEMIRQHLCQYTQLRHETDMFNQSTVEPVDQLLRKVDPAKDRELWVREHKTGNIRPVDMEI
UniProt O43818: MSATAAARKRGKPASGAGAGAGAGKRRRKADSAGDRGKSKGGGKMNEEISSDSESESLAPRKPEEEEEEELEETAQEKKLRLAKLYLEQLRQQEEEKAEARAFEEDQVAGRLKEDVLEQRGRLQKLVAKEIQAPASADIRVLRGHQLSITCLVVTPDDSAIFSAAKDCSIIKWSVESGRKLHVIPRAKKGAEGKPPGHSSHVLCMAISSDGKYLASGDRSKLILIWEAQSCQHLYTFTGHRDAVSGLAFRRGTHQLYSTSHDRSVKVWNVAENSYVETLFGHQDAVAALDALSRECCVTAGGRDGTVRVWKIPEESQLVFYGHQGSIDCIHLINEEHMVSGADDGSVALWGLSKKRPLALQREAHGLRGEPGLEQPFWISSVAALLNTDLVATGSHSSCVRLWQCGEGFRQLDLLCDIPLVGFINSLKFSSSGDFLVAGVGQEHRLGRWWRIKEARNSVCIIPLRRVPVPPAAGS
UniProt O60858: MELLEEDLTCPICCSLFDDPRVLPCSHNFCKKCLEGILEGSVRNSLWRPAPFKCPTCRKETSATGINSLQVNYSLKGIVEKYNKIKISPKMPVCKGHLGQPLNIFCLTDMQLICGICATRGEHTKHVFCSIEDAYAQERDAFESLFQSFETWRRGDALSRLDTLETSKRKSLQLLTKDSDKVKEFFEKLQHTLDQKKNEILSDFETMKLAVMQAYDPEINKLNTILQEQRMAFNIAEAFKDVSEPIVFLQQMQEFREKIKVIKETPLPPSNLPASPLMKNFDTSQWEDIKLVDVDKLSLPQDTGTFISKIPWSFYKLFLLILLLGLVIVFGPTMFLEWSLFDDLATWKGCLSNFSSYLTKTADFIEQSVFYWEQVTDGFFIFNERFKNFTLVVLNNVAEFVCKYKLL
UniProt O75448: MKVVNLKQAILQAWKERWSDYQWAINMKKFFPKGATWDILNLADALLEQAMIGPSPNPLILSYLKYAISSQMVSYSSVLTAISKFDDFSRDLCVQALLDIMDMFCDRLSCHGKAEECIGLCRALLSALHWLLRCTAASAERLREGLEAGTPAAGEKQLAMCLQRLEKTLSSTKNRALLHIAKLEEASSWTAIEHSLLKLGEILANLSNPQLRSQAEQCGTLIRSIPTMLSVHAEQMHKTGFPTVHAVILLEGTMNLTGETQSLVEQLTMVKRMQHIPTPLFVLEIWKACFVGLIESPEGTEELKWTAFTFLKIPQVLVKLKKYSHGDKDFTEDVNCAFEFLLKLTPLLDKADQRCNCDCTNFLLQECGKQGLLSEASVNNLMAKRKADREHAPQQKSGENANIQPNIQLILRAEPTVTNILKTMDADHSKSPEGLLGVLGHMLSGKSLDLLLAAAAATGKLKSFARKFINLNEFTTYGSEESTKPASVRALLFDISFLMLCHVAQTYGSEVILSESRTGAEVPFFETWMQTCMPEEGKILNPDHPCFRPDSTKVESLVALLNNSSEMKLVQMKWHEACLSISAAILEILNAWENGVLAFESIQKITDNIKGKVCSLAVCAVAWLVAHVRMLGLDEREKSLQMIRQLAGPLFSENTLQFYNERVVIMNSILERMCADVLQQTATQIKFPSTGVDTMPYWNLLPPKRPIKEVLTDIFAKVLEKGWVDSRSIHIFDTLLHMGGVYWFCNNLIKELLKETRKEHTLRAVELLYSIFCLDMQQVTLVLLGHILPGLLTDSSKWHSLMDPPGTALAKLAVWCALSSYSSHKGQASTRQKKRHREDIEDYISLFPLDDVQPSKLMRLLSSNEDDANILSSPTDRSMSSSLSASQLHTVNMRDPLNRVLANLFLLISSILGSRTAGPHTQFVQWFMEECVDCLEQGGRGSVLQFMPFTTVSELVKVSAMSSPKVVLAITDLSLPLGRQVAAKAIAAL
UniProt O43464: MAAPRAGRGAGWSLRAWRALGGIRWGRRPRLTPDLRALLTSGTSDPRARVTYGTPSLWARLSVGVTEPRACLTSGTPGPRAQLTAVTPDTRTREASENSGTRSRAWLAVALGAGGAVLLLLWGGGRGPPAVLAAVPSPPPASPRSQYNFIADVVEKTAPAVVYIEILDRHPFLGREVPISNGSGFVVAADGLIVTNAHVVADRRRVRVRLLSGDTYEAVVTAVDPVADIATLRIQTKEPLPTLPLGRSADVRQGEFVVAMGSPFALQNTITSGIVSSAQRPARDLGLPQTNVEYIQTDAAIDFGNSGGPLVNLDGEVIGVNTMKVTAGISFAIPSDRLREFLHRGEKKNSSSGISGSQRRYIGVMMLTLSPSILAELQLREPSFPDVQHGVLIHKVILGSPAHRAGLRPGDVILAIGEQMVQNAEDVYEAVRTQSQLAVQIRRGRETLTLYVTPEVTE
UniProt O75534: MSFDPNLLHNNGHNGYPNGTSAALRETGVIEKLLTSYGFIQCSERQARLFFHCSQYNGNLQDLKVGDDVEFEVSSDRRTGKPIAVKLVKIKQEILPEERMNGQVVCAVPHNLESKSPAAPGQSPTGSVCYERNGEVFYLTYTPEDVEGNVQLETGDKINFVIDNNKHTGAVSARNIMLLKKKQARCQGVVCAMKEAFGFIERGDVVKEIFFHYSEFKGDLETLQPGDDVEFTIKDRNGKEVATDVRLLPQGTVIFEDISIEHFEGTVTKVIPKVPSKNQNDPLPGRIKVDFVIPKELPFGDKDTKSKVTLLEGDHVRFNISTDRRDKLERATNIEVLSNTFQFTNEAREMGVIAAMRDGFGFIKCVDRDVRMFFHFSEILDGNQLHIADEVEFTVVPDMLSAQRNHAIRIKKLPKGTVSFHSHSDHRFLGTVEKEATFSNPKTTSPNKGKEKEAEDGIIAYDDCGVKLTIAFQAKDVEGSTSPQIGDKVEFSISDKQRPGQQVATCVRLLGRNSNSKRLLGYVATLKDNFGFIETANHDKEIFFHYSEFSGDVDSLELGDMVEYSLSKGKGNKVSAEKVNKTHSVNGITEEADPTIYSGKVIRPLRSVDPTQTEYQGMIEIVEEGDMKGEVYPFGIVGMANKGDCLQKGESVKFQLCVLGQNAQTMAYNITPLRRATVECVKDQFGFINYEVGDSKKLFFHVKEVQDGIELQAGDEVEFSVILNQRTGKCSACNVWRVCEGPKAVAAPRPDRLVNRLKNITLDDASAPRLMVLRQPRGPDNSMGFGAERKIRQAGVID
UniProt O43447: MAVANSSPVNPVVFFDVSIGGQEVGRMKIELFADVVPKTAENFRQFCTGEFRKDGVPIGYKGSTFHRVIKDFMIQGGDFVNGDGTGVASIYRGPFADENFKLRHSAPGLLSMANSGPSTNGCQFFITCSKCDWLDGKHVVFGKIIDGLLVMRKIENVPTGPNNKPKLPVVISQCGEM
UniProt O43776: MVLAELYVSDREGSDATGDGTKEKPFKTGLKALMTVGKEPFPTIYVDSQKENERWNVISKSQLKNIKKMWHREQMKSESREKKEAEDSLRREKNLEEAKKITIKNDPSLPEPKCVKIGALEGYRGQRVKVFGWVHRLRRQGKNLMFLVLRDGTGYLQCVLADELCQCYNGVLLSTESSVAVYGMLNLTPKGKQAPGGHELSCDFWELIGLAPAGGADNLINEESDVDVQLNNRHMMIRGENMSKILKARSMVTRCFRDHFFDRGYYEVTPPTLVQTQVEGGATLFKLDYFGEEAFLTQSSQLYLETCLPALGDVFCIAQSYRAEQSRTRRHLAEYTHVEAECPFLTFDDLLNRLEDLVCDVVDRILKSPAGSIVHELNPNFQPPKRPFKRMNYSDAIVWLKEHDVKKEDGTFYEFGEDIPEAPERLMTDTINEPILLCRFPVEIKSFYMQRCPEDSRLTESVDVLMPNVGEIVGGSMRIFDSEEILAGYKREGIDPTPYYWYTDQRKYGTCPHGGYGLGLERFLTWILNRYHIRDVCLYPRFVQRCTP
UniProt O75525: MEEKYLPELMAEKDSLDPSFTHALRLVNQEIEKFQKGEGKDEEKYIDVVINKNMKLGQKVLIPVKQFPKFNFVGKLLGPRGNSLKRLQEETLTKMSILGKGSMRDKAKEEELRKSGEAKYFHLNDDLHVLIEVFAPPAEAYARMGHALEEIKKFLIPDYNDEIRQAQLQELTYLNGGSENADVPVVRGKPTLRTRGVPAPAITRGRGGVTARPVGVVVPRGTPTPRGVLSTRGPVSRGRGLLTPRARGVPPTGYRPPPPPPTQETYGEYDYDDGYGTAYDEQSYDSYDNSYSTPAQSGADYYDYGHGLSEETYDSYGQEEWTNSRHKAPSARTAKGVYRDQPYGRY
UniProt O60493, whole entry: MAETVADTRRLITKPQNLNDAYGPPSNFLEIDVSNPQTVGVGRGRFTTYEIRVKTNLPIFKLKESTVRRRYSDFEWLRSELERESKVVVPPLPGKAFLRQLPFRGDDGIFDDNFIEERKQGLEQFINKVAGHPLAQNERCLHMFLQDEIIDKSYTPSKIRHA
UniProt O75607: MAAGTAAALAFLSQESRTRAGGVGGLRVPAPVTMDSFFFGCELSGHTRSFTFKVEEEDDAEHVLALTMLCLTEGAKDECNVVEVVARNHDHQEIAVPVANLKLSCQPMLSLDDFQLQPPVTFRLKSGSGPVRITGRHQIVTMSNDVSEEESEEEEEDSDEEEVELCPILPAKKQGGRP
UniProt O75828: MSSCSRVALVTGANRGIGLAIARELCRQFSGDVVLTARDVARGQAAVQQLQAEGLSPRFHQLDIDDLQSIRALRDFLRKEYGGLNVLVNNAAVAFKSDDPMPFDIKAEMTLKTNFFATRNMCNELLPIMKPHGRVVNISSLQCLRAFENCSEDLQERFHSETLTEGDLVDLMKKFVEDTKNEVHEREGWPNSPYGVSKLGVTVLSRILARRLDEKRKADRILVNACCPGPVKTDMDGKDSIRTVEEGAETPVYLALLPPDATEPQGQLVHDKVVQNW
UniProt O60266: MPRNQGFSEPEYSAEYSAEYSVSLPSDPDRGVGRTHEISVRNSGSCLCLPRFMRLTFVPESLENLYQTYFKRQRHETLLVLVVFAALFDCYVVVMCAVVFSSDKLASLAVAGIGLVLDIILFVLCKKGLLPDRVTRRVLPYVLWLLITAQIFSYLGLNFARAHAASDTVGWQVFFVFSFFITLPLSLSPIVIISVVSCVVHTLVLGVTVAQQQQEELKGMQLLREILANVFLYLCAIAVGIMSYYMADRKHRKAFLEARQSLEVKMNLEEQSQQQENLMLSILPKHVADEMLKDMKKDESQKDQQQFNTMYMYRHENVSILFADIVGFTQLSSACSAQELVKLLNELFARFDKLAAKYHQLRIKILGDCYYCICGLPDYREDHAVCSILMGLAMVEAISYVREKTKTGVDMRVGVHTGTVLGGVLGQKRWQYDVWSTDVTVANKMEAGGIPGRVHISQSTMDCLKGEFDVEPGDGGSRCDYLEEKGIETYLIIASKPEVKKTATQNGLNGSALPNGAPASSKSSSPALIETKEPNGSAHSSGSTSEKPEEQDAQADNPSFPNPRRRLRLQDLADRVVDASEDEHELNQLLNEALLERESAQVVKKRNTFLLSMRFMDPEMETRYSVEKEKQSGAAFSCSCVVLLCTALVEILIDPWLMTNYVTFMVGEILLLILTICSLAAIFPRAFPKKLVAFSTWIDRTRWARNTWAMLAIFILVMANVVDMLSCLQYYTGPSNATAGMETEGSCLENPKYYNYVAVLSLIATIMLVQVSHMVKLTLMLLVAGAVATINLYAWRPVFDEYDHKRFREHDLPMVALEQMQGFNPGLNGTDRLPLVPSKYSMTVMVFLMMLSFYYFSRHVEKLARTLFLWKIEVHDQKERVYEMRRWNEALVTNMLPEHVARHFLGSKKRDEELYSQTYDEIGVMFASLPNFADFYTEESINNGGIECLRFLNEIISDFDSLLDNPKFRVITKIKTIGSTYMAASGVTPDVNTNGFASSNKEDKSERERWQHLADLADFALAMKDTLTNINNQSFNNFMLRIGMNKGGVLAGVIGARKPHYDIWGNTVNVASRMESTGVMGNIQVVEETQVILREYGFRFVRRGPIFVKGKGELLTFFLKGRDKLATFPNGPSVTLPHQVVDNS

The other results are listed elsewhere or left out. Single values of this set are uncertain.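 Tm was set to 64 °C where no melting was found, and many curves are irregular.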

Compound in the experiment: CCc1cnccc1C(=O)Nc1cc2c(cc1F)NC(=O)CC2
Briefly: melting temperature shift (DMSO Tm minus MBE1-treated Tm) in cellular thermal proteome profiling; higher = less thermal stabilization by MBE1 (negative = stabilized by MBE1). The conditions noted are these: A375.

Regarding SEC22B (UniProt O75396), the melting temperature shift by setting is: (MBE1 concentration: 100 nM) 0.0244 °C; (MBE1 concentration: 1 uM) 0.385 °C.
UniProt O60861: the melting temperature shift reads like this: (MBE1 concentration: 100 nM) 0.0833 °C; (MBE1 concentration: 1 uM) 0.0577 °C.
In the same order, the values of FOXO3 (UniProt O43524) are -2.08 °C and 3.61 °C.
Consider AP1G1 (UniProt O43747), for which the melting temperature shift (MBE1 concentration: 100 nM) amounted to 0.513 °C and the melting temperature shift (MBE1 concentration: 1 uM) is -0.153 °C.
Regarding RRP9 (UniProt O43818), the melting temperature shift is -0.801 °C (MBE1 concentration: 100 nM) and 0 °C (MBE1 concentration: 1 uM).
Turning to ERI3 (UniProt O43414), the melting temperature shift runs as follows: (MBE1 concentration: 100 nM) -0.985 °C; (MBE1 concentration: 1 uM) 0.0244 °C.
Turning to SGTA (UniProt O43765), the melting temperature shift came to 0.104 °C (MBE1 concentration: 100 nM) and 0.232 °C (MBE1 concentration: 1 uM).
For the target FIBP (UniProt O43427), the melting temperature shift runs as follows: (MBE1 concentration: 100 nM) -2.23 °C; (MBE1 concentration: 1 uM) 1.07 °C.
As to RANBP6 (UniProt O60518), the melting temperature shift by setting is: (MBE1 concentration: 100 nM) -0.194 °C; (MBE1 concentration: 1 uM) 0.318 °C.
Take TIMM44 (UniProt O43615): the melting temperature shift was 0.409 °C (MBE1 concentration: 100 nM) and 0.837 °C (MBE1 concentration: 1 uM).
With UniProt O60858, the melting temperature shift is -0.835 °C (MBE1 concentration: 100 nM) and -1.07 °C (MBE1 concentration: 1 uM).
Taken in the same sequence, the figures for NDUFS7 (UniProt O75251) were -0.577 °C and 0.324 °C.
In the same order, the values of MED24 (UniProt O75448) are -0.471 °C and 0.501 °C.
On to MYO1B (UniProt O43795), for which the melting temperature shift by setting is: (MBE1 concentration: 100 nM) 0.208 °C; (MBE1 concentration: 1 uM) 0.0427 °C.
Turning to NEMF (UniProt O60524), the melting temperature shift reads like this: (MBE1 concentration: 100 nM) 0.488 °C; (MBE1 concentration: 1 uM) 0.134 °C.
With BRD4 (UniProt O60885), the melting temperature shift reads like this: (MBE1 concentration: 100 nM) -0.487 °C; (MBE1 concentration: 1 uM) -0.32 °C.
Regarding PRPSAP2 (UniProt O60256), the melting temperature shift is, setting by setting: (MBE1 concentration: 100 nM) -1.04 °C; (MBE1 concentration: 1 uM) 0.305 °C.
As to CUTA (UniProt O60888), the melting temperature shift (MBE1 concentration: 100 nM) was -0.611 °C and the melting temperature shift (MBE1 concentration: 1 uM) is -4.03 °C.
Turning to HTRA2 (UniProt O43464), the melting temperature shift is -0.194 °C (MBE1 concentration: 100 nM) and 0.574 °C (MBE1 concentration: 1 uM).
Taken in the same sequence, the figures for UniProt O60279 were -4.73 °C and -3.83 °C.
Taken in the same sequence, the figures for TADA3 (UniProt O75528) were -3.43 °C and -4.96 °C.
In the same order, the values of UTP20 (UniProt O75691) are -0.384 °C and -0.282 °C.
CSDE1 (UniProt O75534): the melting temperature shift runs as follows: (MBE1 concentration: 100 nM) -0.585 °C; (MBE1 concentration: 1 uM) -0.346 °C.
On to PPIH (UniProt O43447), for which the melting temperature shift (MBE1 concentration: 100 nM) amounted to 0.171 °C and the melting temperature shift (MBE1 concentration: 1 uM) was found to be 0.256 °C.
With NARS (UniProt O43776), the melting temperature shift reads like this: (MBE1 concentration: 100 nM) -0.376 °C; (MBE1 concentration: 1 uM) 0.336 °C.
For UniProt O75525, the melting temperature shift (MBE1 concentration: 100 nM) was -0.282 °C and the melting temperature shift (MBE1 concentration: 1 uM) was -0.355 °C.
In the case of EIF4E2 (UniProt O60573), the melting temperature shift was -0.103 °C (MBE1 concentration: 100 nM) and -0.822 °C (MBE1 concentration: 1 uM).
On to LRP6 (UniProt O75581), for which the melting temperature shift runs as follows: (MBE1 concentration: 100 nM) -0.463 °C; (MBE1 concentration: 1 uM) -0.0939 °C.
With SNX3 (UniProt O60493), the melting temperature shift (MBE1 concentration: 100 nM) was -0.273 °C and the melting temperature shift (MBE1 concentration: 1 uM) is -0.447 °C.
For the target NPM3 (UniProt O75607), the melting temperature shift runs as follows: (MBE1 concentration: 100 nM) -3.05 °C; (MBE1 concentration: 1 uM) -0.6 °C.
GTPBP6 (UniProt O43824): the melting temperature shift is -0.953 °C (MBE1 concentration: 100 nM) and 0.916 °C (MBE1 concentration: 1 uM).
Taken in the same sequence, the figures for EIF5B (UniProt O60841) were -0.116 °C and 0.434 °C.
For the target SIN3B (UniProt O75182), the melting temperature shift was -0.128 °C (MBE1 concentration: 100 nM) and -0.34 °C (MBE1 concentration: 1 uM).
Taken in the same sequence, the figures for CBR3 (UniProt O75828) were -0.00611 °C and 0.519 °C.
Consider UniProt O60266, for which the melting temperature shift (MBE1 concentration: 100 nM) is 0.824 °C and the melting temperature shift (MBE1 concentration: 1 uM) is -2.32 °C.
